{"sequences": {"note": "Amino acid sequences for entries named in this document (tags omitted). A change or cut given only in a name is not applied to a line headed by its entry.", "UniProt O43566": "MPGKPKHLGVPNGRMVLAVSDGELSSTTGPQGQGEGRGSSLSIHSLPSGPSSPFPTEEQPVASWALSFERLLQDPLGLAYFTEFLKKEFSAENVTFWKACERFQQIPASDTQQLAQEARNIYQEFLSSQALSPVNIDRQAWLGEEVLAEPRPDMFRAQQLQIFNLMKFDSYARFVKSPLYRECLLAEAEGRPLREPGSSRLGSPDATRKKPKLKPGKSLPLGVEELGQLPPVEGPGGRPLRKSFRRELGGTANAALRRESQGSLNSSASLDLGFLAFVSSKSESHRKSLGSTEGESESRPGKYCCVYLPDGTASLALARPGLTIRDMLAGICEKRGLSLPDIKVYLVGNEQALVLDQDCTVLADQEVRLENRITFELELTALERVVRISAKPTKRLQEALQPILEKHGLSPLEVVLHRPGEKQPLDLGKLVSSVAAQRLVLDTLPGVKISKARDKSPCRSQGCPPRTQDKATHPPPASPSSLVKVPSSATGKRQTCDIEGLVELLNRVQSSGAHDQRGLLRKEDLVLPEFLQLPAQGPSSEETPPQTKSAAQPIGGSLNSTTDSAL", "UniProt Q9Y508": "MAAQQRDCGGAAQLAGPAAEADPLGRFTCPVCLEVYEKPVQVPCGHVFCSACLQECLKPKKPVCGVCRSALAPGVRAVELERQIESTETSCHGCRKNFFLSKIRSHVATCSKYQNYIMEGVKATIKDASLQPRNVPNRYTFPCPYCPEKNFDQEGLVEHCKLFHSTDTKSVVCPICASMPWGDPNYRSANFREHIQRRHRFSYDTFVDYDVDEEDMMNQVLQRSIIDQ", "UniProt P40938, whole entry, looked up": "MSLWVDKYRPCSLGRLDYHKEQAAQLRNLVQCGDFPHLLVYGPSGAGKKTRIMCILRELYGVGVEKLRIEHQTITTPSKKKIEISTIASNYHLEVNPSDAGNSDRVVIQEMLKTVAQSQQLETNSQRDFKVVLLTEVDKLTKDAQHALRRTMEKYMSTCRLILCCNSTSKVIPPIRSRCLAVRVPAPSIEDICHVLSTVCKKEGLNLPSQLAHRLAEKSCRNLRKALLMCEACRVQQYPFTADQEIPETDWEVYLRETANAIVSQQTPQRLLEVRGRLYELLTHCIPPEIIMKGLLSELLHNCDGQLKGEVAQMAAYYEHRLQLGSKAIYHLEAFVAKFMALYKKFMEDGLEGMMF", "UniProt Q13129": "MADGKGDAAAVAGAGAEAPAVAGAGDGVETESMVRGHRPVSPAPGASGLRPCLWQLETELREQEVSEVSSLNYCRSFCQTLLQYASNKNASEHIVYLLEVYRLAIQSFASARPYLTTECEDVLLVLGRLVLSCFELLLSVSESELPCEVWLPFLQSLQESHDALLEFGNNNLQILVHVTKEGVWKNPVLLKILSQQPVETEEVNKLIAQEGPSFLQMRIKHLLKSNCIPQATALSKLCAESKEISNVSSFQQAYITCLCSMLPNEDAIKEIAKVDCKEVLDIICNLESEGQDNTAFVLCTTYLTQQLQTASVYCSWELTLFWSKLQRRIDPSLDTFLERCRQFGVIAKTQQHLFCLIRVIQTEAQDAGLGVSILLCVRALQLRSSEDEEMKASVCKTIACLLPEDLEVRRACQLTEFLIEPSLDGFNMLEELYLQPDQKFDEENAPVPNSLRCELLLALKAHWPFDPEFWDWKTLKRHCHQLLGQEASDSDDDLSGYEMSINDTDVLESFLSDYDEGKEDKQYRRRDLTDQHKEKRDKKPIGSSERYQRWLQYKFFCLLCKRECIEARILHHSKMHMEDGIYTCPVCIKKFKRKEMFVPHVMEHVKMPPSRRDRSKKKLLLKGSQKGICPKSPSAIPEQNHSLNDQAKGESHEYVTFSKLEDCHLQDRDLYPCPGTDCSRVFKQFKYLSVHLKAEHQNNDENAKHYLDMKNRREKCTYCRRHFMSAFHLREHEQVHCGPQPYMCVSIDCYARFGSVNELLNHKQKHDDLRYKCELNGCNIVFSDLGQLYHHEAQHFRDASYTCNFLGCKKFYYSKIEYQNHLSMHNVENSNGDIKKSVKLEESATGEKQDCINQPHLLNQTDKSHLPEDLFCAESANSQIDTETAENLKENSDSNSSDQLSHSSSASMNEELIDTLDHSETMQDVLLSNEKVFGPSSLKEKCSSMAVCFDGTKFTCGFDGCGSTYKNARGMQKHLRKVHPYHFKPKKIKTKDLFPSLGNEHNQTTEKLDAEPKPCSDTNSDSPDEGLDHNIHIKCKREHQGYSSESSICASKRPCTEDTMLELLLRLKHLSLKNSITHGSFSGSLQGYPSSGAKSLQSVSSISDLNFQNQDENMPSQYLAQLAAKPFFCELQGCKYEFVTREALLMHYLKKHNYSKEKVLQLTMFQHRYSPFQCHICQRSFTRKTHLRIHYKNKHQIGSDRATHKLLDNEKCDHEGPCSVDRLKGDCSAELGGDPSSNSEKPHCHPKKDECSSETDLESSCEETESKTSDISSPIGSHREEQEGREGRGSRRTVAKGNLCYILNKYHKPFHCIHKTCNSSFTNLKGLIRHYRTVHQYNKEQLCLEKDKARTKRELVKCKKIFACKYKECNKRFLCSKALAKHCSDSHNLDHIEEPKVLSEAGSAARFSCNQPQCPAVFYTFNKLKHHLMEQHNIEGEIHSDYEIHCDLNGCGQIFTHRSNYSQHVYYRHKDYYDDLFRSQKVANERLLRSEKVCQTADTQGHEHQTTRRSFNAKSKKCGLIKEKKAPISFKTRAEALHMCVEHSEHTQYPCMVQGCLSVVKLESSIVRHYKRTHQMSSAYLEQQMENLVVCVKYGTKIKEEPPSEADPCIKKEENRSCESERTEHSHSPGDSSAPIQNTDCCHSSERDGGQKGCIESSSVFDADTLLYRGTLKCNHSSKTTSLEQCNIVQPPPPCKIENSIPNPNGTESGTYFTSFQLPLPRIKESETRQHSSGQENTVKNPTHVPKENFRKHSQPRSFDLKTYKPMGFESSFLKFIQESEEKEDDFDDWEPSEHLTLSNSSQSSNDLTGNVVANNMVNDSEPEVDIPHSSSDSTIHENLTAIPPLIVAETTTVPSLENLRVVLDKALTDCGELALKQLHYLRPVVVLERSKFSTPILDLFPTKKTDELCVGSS", "UniProt Q8WZ73": "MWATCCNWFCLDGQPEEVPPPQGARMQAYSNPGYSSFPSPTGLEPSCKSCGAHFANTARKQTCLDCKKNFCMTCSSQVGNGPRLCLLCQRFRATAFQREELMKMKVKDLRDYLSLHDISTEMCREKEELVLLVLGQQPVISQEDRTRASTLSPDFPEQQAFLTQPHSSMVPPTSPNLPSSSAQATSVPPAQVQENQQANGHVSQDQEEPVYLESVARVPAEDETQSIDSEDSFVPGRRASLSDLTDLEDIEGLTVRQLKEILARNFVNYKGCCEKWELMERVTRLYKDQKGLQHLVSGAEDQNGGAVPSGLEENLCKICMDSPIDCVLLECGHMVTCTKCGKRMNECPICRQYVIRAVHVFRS", "UniProt Q04206, whole entry, looked up": "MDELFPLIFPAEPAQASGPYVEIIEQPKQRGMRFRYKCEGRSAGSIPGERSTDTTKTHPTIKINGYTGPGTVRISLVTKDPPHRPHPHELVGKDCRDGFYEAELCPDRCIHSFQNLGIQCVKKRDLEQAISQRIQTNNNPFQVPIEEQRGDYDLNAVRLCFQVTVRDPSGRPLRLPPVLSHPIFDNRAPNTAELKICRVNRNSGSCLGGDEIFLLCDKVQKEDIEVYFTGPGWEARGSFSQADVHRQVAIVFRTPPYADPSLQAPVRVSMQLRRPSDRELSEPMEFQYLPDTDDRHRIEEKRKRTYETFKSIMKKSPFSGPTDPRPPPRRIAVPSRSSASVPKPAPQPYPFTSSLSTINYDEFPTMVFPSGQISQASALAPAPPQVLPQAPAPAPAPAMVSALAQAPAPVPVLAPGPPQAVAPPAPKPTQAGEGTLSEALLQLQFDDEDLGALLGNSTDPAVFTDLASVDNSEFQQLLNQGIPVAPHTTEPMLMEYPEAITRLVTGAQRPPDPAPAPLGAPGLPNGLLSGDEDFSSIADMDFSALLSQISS", "UniProt P51606": "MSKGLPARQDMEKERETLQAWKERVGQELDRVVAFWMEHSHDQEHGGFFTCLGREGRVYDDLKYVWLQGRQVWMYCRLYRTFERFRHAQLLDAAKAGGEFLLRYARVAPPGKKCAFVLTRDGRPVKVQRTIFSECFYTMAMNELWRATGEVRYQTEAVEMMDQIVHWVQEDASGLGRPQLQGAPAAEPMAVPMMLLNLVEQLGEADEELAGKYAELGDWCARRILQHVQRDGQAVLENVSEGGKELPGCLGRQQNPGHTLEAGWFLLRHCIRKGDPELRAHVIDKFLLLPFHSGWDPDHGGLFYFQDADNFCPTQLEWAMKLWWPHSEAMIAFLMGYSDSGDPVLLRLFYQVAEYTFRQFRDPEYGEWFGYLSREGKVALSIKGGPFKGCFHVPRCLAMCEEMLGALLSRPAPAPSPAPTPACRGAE", "UniProt Q9BWE0": "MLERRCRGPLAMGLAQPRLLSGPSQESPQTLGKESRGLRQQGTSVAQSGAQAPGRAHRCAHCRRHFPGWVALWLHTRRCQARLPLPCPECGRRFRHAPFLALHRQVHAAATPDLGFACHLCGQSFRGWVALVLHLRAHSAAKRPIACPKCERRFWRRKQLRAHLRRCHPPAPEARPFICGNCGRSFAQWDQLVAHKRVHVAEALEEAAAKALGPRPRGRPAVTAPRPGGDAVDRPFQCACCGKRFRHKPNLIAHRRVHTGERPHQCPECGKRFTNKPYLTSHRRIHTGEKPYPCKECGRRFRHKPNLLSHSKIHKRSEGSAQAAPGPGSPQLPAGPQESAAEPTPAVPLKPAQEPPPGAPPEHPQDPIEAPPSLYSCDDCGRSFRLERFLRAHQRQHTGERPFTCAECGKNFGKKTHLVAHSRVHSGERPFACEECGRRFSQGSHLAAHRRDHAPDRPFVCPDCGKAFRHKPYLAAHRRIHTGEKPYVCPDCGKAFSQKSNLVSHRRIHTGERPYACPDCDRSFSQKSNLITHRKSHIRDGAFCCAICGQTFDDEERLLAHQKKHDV", "UniProt Q92546": "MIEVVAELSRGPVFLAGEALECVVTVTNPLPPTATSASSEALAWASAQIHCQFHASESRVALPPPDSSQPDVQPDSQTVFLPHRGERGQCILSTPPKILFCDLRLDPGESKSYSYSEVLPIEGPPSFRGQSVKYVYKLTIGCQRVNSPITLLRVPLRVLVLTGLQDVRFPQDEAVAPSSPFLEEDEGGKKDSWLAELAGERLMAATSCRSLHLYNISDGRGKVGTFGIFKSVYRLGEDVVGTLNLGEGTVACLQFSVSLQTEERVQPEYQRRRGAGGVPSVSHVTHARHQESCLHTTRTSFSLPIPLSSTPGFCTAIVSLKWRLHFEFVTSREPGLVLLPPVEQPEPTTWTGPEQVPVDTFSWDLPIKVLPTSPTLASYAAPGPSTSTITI", "UniProt O94761": "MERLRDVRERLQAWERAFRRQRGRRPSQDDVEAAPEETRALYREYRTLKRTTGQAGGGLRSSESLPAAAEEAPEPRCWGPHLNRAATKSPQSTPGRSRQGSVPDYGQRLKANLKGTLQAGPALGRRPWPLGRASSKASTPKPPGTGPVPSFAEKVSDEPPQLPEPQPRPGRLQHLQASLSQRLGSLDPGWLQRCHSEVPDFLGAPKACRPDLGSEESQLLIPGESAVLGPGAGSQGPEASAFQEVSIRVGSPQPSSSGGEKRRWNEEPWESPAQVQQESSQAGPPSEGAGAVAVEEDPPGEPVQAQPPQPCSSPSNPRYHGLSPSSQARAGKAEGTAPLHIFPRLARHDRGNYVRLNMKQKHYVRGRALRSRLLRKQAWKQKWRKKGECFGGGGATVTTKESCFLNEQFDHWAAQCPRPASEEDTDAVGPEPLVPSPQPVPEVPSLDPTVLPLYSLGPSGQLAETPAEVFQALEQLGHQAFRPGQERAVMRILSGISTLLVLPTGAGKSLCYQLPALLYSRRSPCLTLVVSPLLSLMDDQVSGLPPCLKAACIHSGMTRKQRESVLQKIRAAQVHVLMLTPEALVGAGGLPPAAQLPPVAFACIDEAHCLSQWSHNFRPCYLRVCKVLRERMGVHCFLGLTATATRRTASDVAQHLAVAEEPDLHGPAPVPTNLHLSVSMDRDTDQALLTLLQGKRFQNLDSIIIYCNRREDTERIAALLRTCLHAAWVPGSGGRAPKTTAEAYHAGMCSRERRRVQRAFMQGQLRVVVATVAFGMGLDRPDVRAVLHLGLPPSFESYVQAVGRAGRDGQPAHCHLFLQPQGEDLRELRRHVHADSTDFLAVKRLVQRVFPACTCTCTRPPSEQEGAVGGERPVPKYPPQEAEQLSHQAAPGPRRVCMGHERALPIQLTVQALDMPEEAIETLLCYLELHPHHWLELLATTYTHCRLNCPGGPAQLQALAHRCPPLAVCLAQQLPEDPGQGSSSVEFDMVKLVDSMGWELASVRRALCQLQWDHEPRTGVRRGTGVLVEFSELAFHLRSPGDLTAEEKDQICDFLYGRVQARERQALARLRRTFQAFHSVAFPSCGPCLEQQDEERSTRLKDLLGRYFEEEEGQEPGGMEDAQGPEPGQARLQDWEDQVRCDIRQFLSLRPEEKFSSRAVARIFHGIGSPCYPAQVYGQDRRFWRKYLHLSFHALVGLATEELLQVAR"}, "source": "the supplement of paper PMC12067093", "about": "“Discovery and optimisation of a covalent ligand for TRIM25 and its application to targeted protein ubiquitination” (Chemical Science, 2025)", "compound": "CC1Cc2ccccc2N1C(=O)C1CCCN(C1)C(=O)CCl (mixture of isomers) [TRIM25 ligand 11 (diastereomer mixture)]", "test": "probe-labelled cysteine peptide fold change vs DMSO (competition) (log2 fold change); higher = less target engagement (more negative = stronger competition)", "details": "THP-1, incubation time: 4 h", "note": "The list shows a part of the results.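 Note: competitive chemoproteomic profiling in live THP-1 cells with an iodoacetamide desthiobiotin (IA-DTB) probe, comparing probe-labelled peptide intensities in compound-treated cells against DMSO-treated controls.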", "data": [{"target": "RIOK3_O14730_346_AGIPCPTVVLLK (UniProt O14730)", "values": [{"measurement": "probe-labelled cysteine peptide fold change", "setting": "10 µM", "value": 0.0766}, {"measurement": "probe-labelled cysteine peptide fold change", "setting": "50 µM", "value": 0.179}]}, {"target": "RICTOR_Q6R327_906_TGCHLLEVQNIITELCR (UniProt Q6R327)", "values": [{"measurement": "probe-labelled cysteine peptide fold change", "setting": "10 µM", "value": -0.0688}, {"measurement": "probe-labelled cysteine peptide fold change", "setting": "50 µM", "value": -0.0297}]}, {"target": "RGS14_O43566-5_207_ALVLDQDCTVLADQEVR (UniProt O43566)", "values": [{"measurement": "probe-labelled cysteine peptide fold change", "setting": "10 µM", "value": 0.166}, {"measurement": "probe-labelled cysteine peptide fold change", "setting": "50 µM", "value": 0.385}]}, {"target": "RIOK2_Q9BVS4_449_VQGGVPAGSDEYEDECPHLIALSSLNR (UniProt Q9BVS4)", "values": [{"measurement": "probe-labelled cysteine peptide fold change", "setting": "10 µM", "value": -0.148}, {"measurement": "probe-labelled cysteine peptide fold change", "setting": "50 µM", "value": -0.353}]}, {"target": "RGS14_O43566_496_QTCDIEGLVELLNR (UniProt O43566)", "values": [{"measurement": "probe-labelled cysteine peptide fold change", "setting": "10 µM", "value": -0.131}, {"measurement": "probe-labelled cysteine peptide fold change", "setting": "50 µM", "value": -0.475}]}, {"target": "RNF114_Q9Y508_160_NFDQEGLVEHCK (UniProt Q9Y508)", "values": [{"measurement": "probe-labelled cysteine peptide fold change", "setting": "10 µM", "value": 0.0772}, {"measurement": "probe-labelled cysteine peptide fold change", "setting": "50 µM", "value": 0.0072}]}, {"target": "RGS14_O43566_183_ECLLAEAEGRPLREPGSSR (UniProt O43566)", "values": [{"measurement": "probe-labelled cysteine peptide fold change", "setting": "10 µM", "value": -0.0379}, {"measurement": "probe-labelled cysteine peptide fold change", "setting": "50 µM", "value": 0.0993}]}, {"target": "RFC3_P40938_285_LYELLTHCIPPEIIMK (UniProt P40938)", "values": [{"measurement": "probe-labelled cysteine peptide fold change", "setting": "10 µM", "value": 0.168}, {"measurement": "probe-labelled cysteine peptide fold change", "setting": "50 µM", "value": -0.117}]}, {"target": "RDH11_Q8TC12_33_MLSSGVCTSTVQLPGK (UniProt Q8TC12)", "values": [{"measurement": "probe-labelled cysteine peptide fold change", "setting": "10 µM", "value": 0.0781}, {"measurement": "probe-labelled cysteine peptide fold change", "setting": "50 µM", "value": 0.427}]}, {"target": "RLF_Q13129_1364_KIFACK (UniProt Q13129)", "values": [{"measurement": "probe-labelled cysteine peptide fold change", "setting": "10 µM", "value": -0.369}, {"measurement": "probe-labelled cysteine peptide fold change", "setting": "50 µM", "value": -0.304}]}, {"target": "RFFL_Q8WZ73_123_DLRDYLSLHDISTEMCR (UniProt Q8WZ73)", "values": [{"measurement": "probe-labelled cysteine peptide fold change", "setting": "10 µM", "value": -0.0342}, {"measurement": "probe-labelled cysteine peptide fold change", "setting": "50 µM", "value": -0.0655}]}, {"target": "RINL_Q6ZS11_350_KDEDPGPALETAVCQAVLAPLKPALWTR (UniProt Q6ZS11)", "values": [{"measurement": "probe-labelled cysteine peptide fold change", "setting": "10 µM", "value": 0.044}, {"measurement": "probe-labelled cysteine peptide fold change", "setting": "50 µM", "value": -0.397}]}, {"target": "RELA_Q04206_160_LCFQVTVR (UniProt Q04206)", "values": [{"measurement": "probe-labelled cysteine peptide fold change", "setting": "10 µM", "value": -0.145}, {"measurement": "probe-labelled cysteine peptide fold change", "setting": "50 µM", "value": 0.0676}]}, {"target": "RNF114_Q9Y508_64+67_KPVCGVCR (UniProt Q9Y508)", "values": [{"measurement": "probe-labelled cysteine peptide fold change", "setting": "10 µM", "value": -0.0793}, {"measurement": "probe-labelled cysteine peptide fold change", "setting": "50 µM", "value": -0.165}]}, {"target": "RHOT2_Q8IXI1_185_QLRPACAQALTR (UniProt Q8IXI1)", "values": [{"measurement": "probe-labelled cysteine peptide fold change", "setting": "10 µM", "value": -0.0278}, {"measurement": "probe-labelled cysteine peptide fold change", "setting": "50 µM", "value": -0.07}]}, {"target": "RENBP_P51606_51_VVAFWMEHSHDQEHGGFFTCLGR (UniProt P51606)", "values": [{"measurement": "probe-labelled cysteine peptide fold change", "setting": "10 µM", "value": 0.0801}, {"measurement": "probe-labelled cysteine peptide fold change", "setting": "50 µM", "value": -0.12}]}, {"target": "RNF138_Q8WVD3_34_TTACQHVFCR (UniProt Q8WVD3)", "values": [{"measurement": "probe-labelled cysteine peptide fold change", "setting": "10 µM", "value": -0.117}, {"measurement": "probe-labelled cysteine peptide fold change", "setting": "50 µM", "value": -0.0135}]}, {"target": "RFX2_P48378_436_LISLCQCDPILR (UniProt P48378)", "values": [{"measurement": "probe-labelled cysteine peptide fold change", "setting": "10 µM", "value": -0.0748}, {"measurement": "probe-labelled cysteine peptide fold change", "setting": "50 µM", "value": -0.024}]}, {"target": "REL_Q04864_143_QLNDIEDCDLNVVR (UniProt Q04864)", "values": [{"measurement": "probe-labelled cysteine peptide fold change", "setting": "10 µM", "value": -0.0385}, {"measurement": "probe-labelled cysteine peptide fold change", "setting": "50 µM", "value": 0.0105}]}, {"target": "REPIN1_Q9BWE0_167_CHPPAPEAR (UniProt Q9BWE0)", "values": [{"measurement": "probe-labelled cysteine peptide fold change", "setting": "10 µM", "value": 0.0404}, {"measurement": "probe-labelled cysteine peptide fold change", "setting": "50 µM", "value": 0.261}]}, {"target": "RGP1_Q92546_293_HQESCLHTTR (UniProt Q92546)", "values": [{"measurement": "probe-labelled cysteine peptide fold change", "setting": "10 µM", "value": 0.00599}, {"measurement": "probe-labelled cysteine peptide fold change", "setting": "50 µM", "value": -0.0637}]}, {"target": "RLF_Q13129_587_MHMEDGIYTCPVCIK (UniProt Q13129)", "values": [{"measurement": "probe-labelled cysteine peptide fold change", "setting": "10 µM", "value": -0.0254}, {"measurement": "probe-labelled cysteine peptide fold change", "setting": "50 µM", "value": -0.0896}]}, {"target": "RMND5A_Q9H871_109_NFDSDISSVGIDGCWQADSQR (UniProt Q9H871)", "values": [{"measurement": "probe-labelled cysteine peptide fold change", "setting": "10 µM", "value": 0.0243}, {"measurement": "probe-labelled cysteine peptide fold change", "setting": "50 µM", "value": 0.0744}]}, {"target": "RLF_Q13129_1212_CDHEGPCSVDR (UniProt Q13129)", "values": [{"measurement": "probe-labelled cysteine peptide fold change", "setting": "10 µM", "value": 0.08}, {"measurement": "probe-labelled cysteine peptide fold change", "setting": "50 µM", "value": 0.0246}]}, {"target": "RMC1_Q96DM3_635_GSPNFTPGEHCEEHVAFFK (UniProt Q96DM3)", "values": [{"measurement": "probe-labelled cysteine peptide fold change", "setting": "10 µM", "value": -0.0446}, {"measurement": "probe-labelled cysteine peptide fold change", "setting": "50 µM", "value": -0.0345}]}, {"target": "RFWD3_Q6PCD5_379_QAELESAQCR (UniProt Q6PCD5)", "values": [{"measurement": "probe-labelled cysteine peptide fold change", "setting": "10 µM", "value": 0.0654}, {"measurement": "probe-labelled cysteine peptide fold change", "setting": "50 µM", "value": -0.0528}]}, {"target": "RMDN3_Q96TC7_321_GDESADCHLWYAVLCGQLAEHESIQR (UniProt Q96TC7)", "values": [{"measurement": "probe-labelled cysteine peptide fold change", "setting": "10 µM", "value": 0.145}, {"measurement": "probe-labelled cysteine peptide fold change", "setting": "50 µM", "value": -0.116}]}, {"target": "RECQL4_O94761_749_TTAEAYHAGMCSR (UniProt O94761)", "values": [{"measurement": "probe-labelled cysteine peptide fold change", "setting": "10 µM", "value": -0.0321}, {"measurement": "probe-labelled cysteine peptide fold change", "setting": "50 µM", "value": -0.0504}]}, {"target": "RNASEL_Q05823_198_ILLDEMGADVNACDNMGR (UniProt Q05823)", "values": [{"measurement": "probe-labelled cysteine peptide fold change", "setting": "10 µM", "value": -0.0268}, {"measurement": "probe-labelled cysteine peptide fold change", "setting": "50 µM", "value": -0.0752}]}, {"target": "RNF121_Q9H920_251_LSCNHVFHEFCIR (UniProt Q9H920)", "values": [{"measurement": "probe-labelled cysteine peptide fold change", "setting": "10 µM", "value": 0.541}, {"measurement": "probe-labelled cysteine peptide fold change", "setting": "50 µM", "value": 0.512}]}, {"target": "RFC3_P40938_303_GLLSELLHNCDGQLK (UniProt P40938)", "values": [{"measurement": "probe-labelled cysteine peptide fold change", "setting": "10 µM", "value": 0.114}, {"measurement": "probe-labelled cysteine peptide fold change", "setting": "50 µM", "value": 0.0584}]}, {"target": "RIPK1_Q13546_325_MQSLQLDCVAVPSSR (UniProt Q13546)", "values": [{"measurement": "probe-labelled cysteine peptide fold change", "setting": "10 µM", "value": 0.094}, {"measurement": "probe-labelled cysteine peptide fold change", "setting": "50 µM", "value": -0.115}]}, {"target": "RLF_Q13129_355_TQQHLFCLIR (UniProt Q13129)", "values": [{"measurement": "probe-labelled cysteine peptide fold change", "setting": "10 µM", "value": -0.0725}, {"measurement": "probe-labelled cysteine peptide fold change", "setting": "50 µM", "value": 0.316}]}]}
